From paper PMC8020760, “Assembly of a dsRNA synthesizing complex: RNA-DEPENDENT RNA POLYMERASE 2 contacts the largest subunit of NUCLEAR RNA POLYMERASE IV” (Proceedings of the National Academy of Sciences of the …, 2021)
These are yes or no findings as the source states them, for the method shown. In cells and extracts the contact can be indirect. Some entries that bind do so weakly or less than the wild type. Tags and fused reporters may be left off the sequences shown.

T1: recombinant NRPD1_(1–300) with His and FLAG tags, made in E. coli (A. thaliana) (UniProt Q9LQ02)
T1 sequence: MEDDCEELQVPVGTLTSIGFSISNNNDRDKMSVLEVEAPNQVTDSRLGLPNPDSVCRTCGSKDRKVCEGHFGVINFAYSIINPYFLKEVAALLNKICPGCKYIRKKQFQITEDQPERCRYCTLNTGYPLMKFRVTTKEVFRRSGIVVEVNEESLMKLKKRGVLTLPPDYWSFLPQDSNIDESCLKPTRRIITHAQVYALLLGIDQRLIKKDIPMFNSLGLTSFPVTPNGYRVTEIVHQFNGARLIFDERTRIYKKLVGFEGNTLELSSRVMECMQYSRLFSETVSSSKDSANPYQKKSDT

T2: recombinant RNA-… RNA POLYMERASE 2 (RDR2), wild type, with N-terminal V5 epitope and 6xHis tags (A. thaliana) (UniProt O82504)
T2 sequence: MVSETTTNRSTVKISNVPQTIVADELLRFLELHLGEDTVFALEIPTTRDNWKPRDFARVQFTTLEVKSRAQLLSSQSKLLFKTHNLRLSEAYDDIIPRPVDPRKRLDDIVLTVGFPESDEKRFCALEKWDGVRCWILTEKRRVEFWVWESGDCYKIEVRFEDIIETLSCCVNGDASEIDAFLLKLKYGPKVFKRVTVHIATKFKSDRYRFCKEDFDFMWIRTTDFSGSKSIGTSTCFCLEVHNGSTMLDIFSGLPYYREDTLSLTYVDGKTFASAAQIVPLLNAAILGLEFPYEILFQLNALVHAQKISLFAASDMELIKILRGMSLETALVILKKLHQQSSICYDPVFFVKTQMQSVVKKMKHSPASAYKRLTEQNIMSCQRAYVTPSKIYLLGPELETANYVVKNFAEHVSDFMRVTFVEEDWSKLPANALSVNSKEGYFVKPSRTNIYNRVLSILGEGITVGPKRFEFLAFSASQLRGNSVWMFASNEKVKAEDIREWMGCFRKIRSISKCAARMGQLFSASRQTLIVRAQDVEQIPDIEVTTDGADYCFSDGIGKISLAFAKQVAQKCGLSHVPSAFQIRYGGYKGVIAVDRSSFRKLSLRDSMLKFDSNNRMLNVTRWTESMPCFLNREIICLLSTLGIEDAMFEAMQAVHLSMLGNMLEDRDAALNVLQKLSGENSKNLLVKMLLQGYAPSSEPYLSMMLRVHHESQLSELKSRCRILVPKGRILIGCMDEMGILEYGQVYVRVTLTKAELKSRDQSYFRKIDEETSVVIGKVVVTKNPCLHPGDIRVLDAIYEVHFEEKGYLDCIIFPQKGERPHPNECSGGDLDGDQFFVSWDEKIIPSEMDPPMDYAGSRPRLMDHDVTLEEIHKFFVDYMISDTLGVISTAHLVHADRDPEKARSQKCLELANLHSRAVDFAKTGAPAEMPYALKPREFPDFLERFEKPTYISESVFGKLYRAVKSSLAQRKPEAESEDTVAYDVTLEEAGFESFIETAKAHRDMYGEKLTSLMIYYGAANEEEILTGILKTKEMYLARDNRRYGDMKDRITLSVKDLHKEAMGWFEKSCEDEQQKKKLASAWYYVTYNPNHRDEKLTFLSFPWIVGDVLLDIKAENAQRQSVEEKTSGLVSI

B1: recombinant RDR2_(771–970) with His and HA tags, made in E. coli (domain or fragment, A. thaliana, UniProt O82504 771-970, looked up)
chain: ETSVVIGKVVVTKNPCLHPGDIRVLDAIYEVHFEEKGYLDCIIFPQKGERPHPNECSGGDLDGDQFFVSWDEKIIPSEMDPPMDYAGSRPRLMDHDVTLEEIHKFFVDYMISDTLGVISTAHLVHADRDPEKARSQKCLELANLHSRAVDFAKTGAPAEMPYALKPREFPDFLERFEKPTYISESVFGKLYRAVKSSLAQ
notes: The methods give the C-terminal limit as 971, the results and legends as 970; More in SI Appendix, Methods; source: E. coli (pET28 vector), purified (nickel-NTA by the methods; anti-HA resin by the results)
B2: NRPD1 polypeptide, amino acids 1–300, C-terminal FLAG tag, made in vitro (domain or fragment, UniProt Q9LQ02 1-300)
chain: MEDDCEELQVPVGTLTSIGFSISNNNDRDKMSVLEVEAPNQVTDSRLGLPNPDSVCRTCGSKDRKVCEGHFGVINFAYSIINPYFLKEVAALLNKICPGCKYIRKKQFQITEDQPERCRYCTLNTGYPLMKFRVTTKEVFRRSGIVVEVNEESLMKLKKRGVLTLPPDYWSFLPQDSNIDESCLKPTRRIITHAQVYALLLGIDQRLIKKDIPMFNSLGLTSFPVTPNGYRVTEIVHQFNGARLIFDERTRIYKKLVGFEGNTLELSSRVMECMQYSRLFSETVSSSKDSANPYQKKSDT
B3: NRPD1 polypeptide, amino acids 255–555, C-terminal FLAG tag, made in vitro (domain or fragment, UniProt Q9LQ02 255-555)
chain: KLVGFEGNTLELSSRVMECMQYSRLFSETVSSSKDSANPYQKKSDTPKLCGLRFMKDVLLGKRSDHTFRTVVVGDPSLKLNEIGIPESIAKRLQVSEHLNQCNKERLVTSFVPTLLDNKEMHVRRGDRLVAIQVNDLQTGDKIFRSLMDGDTVLMNRPPSIHQHSLIAMTVRILPTTSVVSLNPICCLPFRGDFDGDCLHGYVPQSIQAKVELDELVALDKQLINRQNGRNLLSLGQDSLTAAYLVNVEKNCYLNRAQMQQLQMYCPFQLPPPAIIKASPSSTEPQWTGMQLFGMLFPPGF
B4: RDR2 polypeptide, amino acids 617–816, C-terminal HA tag, made in vitro (domain or fragment, UniProt O82504 617-816)
chain: MLNVTRWTESMPCFLNREIICLLSTLGIEDAMFEAMQAVHLSMLGNMLEDRDAALNVLQKLSGENSKNLLVKMLLQGYAPSSEPYLSMMLRVHHESQLSELKSRCRILVPKGRILIGCMDEMGILEYGQVYVRVTLTKAELKSRDQSYFRKIDEETSVVIGKVVVTKNPCLHPGDIRVLDAIYEVHFEEKGYLDCIIFPQ
B5: RDR2 polypeptide, amino acids 925–1133, C-terminal HA tag, made in vitro (domain or fragment, UniProt O82504 925-1133)
chain: GAPAEMPYALKPREFPDFLERFEKPTYISESVFGKLYRAVKSSLAQRKPEAESEDTVAYDVTLEEAGFESFIETAKAHRDMYGEKLTSLMIYYGAANEEEILTGILKTKEMYLARDNRRYGDMKDRITLSVKDLHKEAMGWFEKSCEDEQQKKKLASAWYYVTYNPNHRDEKLTFLSFPWIVGDVLLDIKAENAQRQSVEEKTSGLVSI

Tests used:
[1] = target: T1, recombinant NRPD1_(1–300) with His and FLAG tags, made in E. coli (A. thaliana); test: co-IP; HA-tagged RDR2 polypeptides made in a bacterial transcription-translation system incubated with FLAG-tagged NRPD1_(1–300); anti-FLAG IP; anti-HA and anti-FLAG immunoblots; only the target purified
[2] = target: T2, recombinant RNA-… RNA POLYMERASE 2 (RDR2), wild type, with N-terminal V5 epitope and 6xHis tags (A. thaliana); test: co-IP; FLAG-tagged NRPD1 polypeptides made in a bacterial transcription-translation system incubated with V5-tagged recombinant RDR2; anti-V5 IP; anti-FLAG and anti-V5 immunoblots; only the target purified

Binder	binding [1]	binding [2]
B1	binds	
B2		binds
B3		no binding
B4	no binding	
B5	no binding	
